Our source for the binding values is article PMC11201311.

Protein sequences, listed by entry. Tags and fused reporters are not part of them.
UniProt P61081: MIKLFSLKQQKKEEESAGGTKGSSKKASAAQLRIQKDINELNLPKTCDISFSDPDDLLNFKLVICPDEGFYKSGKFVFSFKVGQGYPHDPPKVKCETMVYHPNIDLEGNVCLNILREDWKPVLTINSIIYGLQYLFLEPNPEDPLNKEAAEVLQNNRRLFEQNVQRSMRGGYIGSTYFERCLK
UniProt Q14258: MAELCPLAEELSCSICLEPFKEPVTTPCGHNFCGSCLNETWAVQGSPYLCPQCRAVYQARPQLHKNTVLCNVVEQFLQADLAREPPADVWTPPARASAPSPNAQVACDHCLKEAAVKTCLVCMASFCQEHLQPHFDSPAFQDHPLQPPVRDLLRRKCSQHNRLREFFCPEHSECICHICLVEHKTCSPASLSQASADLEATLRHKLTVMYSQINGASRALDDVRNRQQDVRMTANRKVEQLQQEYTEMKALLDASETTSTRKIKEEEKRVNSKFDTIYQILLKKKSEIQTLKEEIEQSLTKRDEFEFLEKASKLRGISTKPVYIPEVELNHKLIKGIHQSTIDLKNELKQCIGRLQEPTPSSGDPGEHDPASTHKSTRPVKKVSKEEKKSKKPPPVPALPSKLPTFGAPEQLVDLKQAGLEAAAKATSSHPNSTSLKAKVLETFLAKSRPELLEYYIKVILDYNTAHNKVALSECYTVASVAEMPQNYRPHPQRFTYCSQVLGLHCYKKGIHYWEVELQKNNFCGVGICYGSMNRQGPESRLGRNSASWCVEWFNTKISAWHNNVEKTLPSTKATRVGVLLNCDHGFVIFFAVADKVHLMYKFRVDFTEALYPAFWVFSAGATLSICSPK

These are yes or no findings as the source states them, for the method shown. In cells and extracts the contact can be indirect. These calls come from enrichment with a bait or labelling near it, and not all partners need be listed.

The target of the assay is Flag-UBC12 (human) (UniProt P61081). In words: affinity purification with mass spectrometry; BT-549 cells transfected with Flag-UBC12 or Flag-TFEB for 48 h, MG132 for 3 h; lysates immunoprecipitated with anti-Flag; silver staining and mass spectrum.

As to “E3 ubiquitin ligase tripartite motif containing 25 (TRIM25), endogenous (from UniProt Q14258 1-630) (enzyme)”, the binding entry is recorded as “binds”.
